# The supplement of paper PMC4635364
# Counter-ions that a name gives are not always drawn. The list shows a part of the results. Single values are uncertain here, since repeats match poorly.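 ReNCell VM, a human fetal ventral-midbrain neural progenitor line, was differentiated without mitogens. Blinded raters scored images stained for doublecortin (early neurons) or tyrosine hydroxylase (dopaminergic neurons) against untreated wells (0 = no change). Scores were averaged across repeats and both raters, and compounds averaging 2 or more were selected as hits for retesting.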
# Tests used:
# [1] = test system: ReNCell VM; assay: neuronal differentiation score (DCX+ cell fraction vs untreated, manual image score) (score (-3 to 3)); higher = more neuronal differentiation; details: 2 uM, 2 weeks
# [2] = test system: ReNCell VM; assay: dopaminergic neuron differentiation score (TH+ cell fraction vs untreated, manual image score) (score (0 to 3)); higher = more TH+ dopaminergic neuron differentiation; details: 2 uM, 4 weeks, BDNF 10 ng/ml + GDNF 10 ng/ml
smiles,measurement,setting,value
CN(C/C=C/c1ccccc1)Cc1cccc2ccccc12 [Naftifine hydrochloride],neuronal differentiation score,[1]; library: Prestwick,inactive: 0
same,dopaminergic neuron differentiation score,[2]; library: Prestwick,inactive: 0
Cc1ccc(NC(=O)C(C)C)cc1C1CCN(Cc2ccc(Oc3ccc(F)c(F)c3)cc2)CC1,neuronal differentiation score,[1]; library: Tocriscreen,inactive: 0
same,dopaminergic neuron differentiation score,[2]; library: Tocriscreen,inactive: 0
C=C1CCC2C(CC2(C)C)C(=C)CC/C1=N/O (centres undefined),neuronal differentiation score,[1]; library: Spectrum,inactive: 0
same,dopaminergic neuron differentiation score,[2]; library: Spectrum,inactive: 0
CCCCC(=O)O[C@H]1CC[C@H]2[C@@H]3CCc4cc(O)ccc4[C@H]3CC[C@]12C [Estradiol Valerate],neuronal differentiation score,[1]; library: Prestwick,inactive: 0
same,dopaminergic neuron differentiation score,[2]; library: Prestwick,inactive: 0
N#Cc1ccc(C(c2ccc(C#N)cc2)n2cncn2)cc1 [Letrozole],neuronal differentiation score,[1]; library: Prestwick,inactive: 0
same,dopaminergic neuron differentiation score,[2]; library: Prestwick,inactive: 0
COC1=C(OC)C(=O)C(CCCCCCCCCCO)=C(C)C1=O,neuronal differentiation score,[1]; library: Spectrum,inactive: 0
same,dopaminergic neuron differentiation score,[2]; library: Spectrum,inactive: 0
O=C1CCC(c2ccc(-n3ccnc3)cc2)=NN1 [Imazodan],neuronal differentiation score,[1]; library: LOPAC,inactive: 0
same,dopaminergic neuron differentiation score,[2]; library: LOPAC,inactive: 0
COc1ccc(-c2coc3cc(O)cc(O)c3c2=O)cc1,neuronal differentiation score,[1]; library: Spectrum,inactive: 0
same,dopaminergic neuron differentiation score,[2]; library: Spectrum,inactive: 0
CC(=O)Nc1ccccc1C(=O)C(=O)O [(2-acetylamino-phenyl)-oxo-acetic acid],neuronal differentiation score,[1]; library: Natural,inactive: 0
same,dopaminergic neuron differentiation score,[2]; library: Natural,inactive: 0
CCN(CC)CCOCCOC(=O)C(CC)(CC)c1ccccc1,neuronal differentiation score,[1]; library: Spectrum,inactive: 0
same,dopaminergic neuron differentiation score,[2]; library: Spectrum,inactive: 0
Clc1ccc(CO/N=C(\Cn2ccnc2)c2ccc(Cl)cc2Cl)c(Cl)c1,neuronal differentiation score,[1]; library: Spectrum,inactive: 0
same,dopaminergic neuron differentiation score,[2]; library: Spectrum,inactive: 0
NS(=O)(=O)c1cc(C(=O)O)cc(N2CCCC2)c1Oc1ccccc1 [Piretanide],neuronal differentiation score,[1]; library: Prestwick,inactive: 0
same,dopaminergic neuron differentiation score,[2]; library: Prestwick,inactive: 0
OC[C@H]1O[C@@H](c2nc3cc(Cl)c(Cl)cc3[nH]2)[C@H](O)[C@@H]1O [D-ribofuranosylbenzimidazole],neuronal differentiation score,[1]; library: LOPAC,inactive: 0
same,dopaminergic neuron differentiation score,[2]; library: LOPAC,inactive: 0
CC(=O)N(OCc1ccccc1)[C@H]1c2cc(C#N)ccc2OC(C)(C)[C@H]1O,neuronal differentiation score,[1]; library: Tocriscreen,inactive: 0
same,dopaminergic neuron differentiation score,[2]; library: Tocriscreen,inactive: 0
Cc1cnc(C(=O)O)c[n+]1[O-] [Acipimox],neuronal differentiation score,[1]; library: Prestwick,inactive: 0
same,dopaminergic neuron differentiation score,[2]; library: Prestwick,inactive: 0
CN[C@@H]1[C@H](O)[C@H](NC)[C@H]2O[C@@]3(O)C(=O)C[C@@H](C)O[C@H]3O[C@@H]2[C@H]1O [Spectinomycin dihydrochloride],neuronal differentiation score,[1]; library: Prestwick,inactive: 0
same,dopaminergic neuron differentiation score,[2]; library: Prestwick,inactive: 0
O=c1onc2n1-c1cc(Br)ccc1OC2,neuronal differentiation score,[1]; library: LOPAC,inactive: 0
same,dopaminergic neuron differentiation score,[2]; library: LOPAC,inactive: 0
COc1ccc(NS(=O)(=O)c2ccc(I)cc2)cc1N1CCN(C)CC1,neuronal differentiation score,[1]; library: Tocriscreen,inactive: 0
same,dopaminergic neuron differentiation score,[2]; library: Tocriscreen,inactive: 0
Fc1ccc(CN(C2=NCCN2)c2c(Cl)cccc2Cl)cc1 [IMID-4F hydrochloride],neuronal differentiation score,[1]; library: LOPAC,inactive: 0
same,dopaminergic neuron differentiation score,[2]; library: LOPAC,inactive: 0
COc1cc(O)c(C(C)=O)c(OC)c1,neuronal differentiation score,[1]; library: Spectrum,inactive: 0
same,dopaminergic neuron differentiation score,[2]; library: Spectrum,inactive: 0
CC1(C)S[C@@H]2[C@H](NC(=O)Cc3ccccc3)C(=O)N2[C@H]1C(=O)O,neuronal differentiation score,[1]; library: Spectrum,inactive: 0
same,dopaminergic neuron differentiation score,[2]; library: Spectrum,inactive: 0
O=C(COc1ccc(Cl)cc1)N1CCN(Cc2ccc3c(c2)OCO3)CC1,neuronal differentiation score,[1]; library: Spectrum,inactive: 0
same,dopaminergic neuron differentiation score,[2]; library: Spectrum,inactive: 0

# An excerpt from the list above, as a working copy:
smiles,measurement,setting,value
O=C1CCC(c2ccc(-n3ccnc3)cc2)=NN1 [Imazodan],neuronal differentiation score,[1]; library: LOPAC,inactive: 0
same,dopaminergic neuron differentiation score,[2]; library: LOPAC,inactive: 0
COc1ccc(-c2coc3cc(O)cc(O)c3c2=O)cc1,neuronal differentiation score,[1]; library: Spectrum,inactive: 0
